Numbering of substitutions follows the chain as printed. No constants are given. Whether binding was seen depends on the method and setting. In cells and extracts the contact can be indirect. Some entries that bind do so weakly or less than the wild type. Tags and fused reporters may be left off the sequences shown.
Columns and labels:
[1] = target: T1, GST-OGA-K358R (UniProt O60502); assay: pull-down; recombinant GST fusion protein incubated with lysates of transfected cells, GST pull-down, immunoblot; in Fig. 3D also lysates of cells treated with 100 μM GA for 24 h; only the target purified
T1 sequence: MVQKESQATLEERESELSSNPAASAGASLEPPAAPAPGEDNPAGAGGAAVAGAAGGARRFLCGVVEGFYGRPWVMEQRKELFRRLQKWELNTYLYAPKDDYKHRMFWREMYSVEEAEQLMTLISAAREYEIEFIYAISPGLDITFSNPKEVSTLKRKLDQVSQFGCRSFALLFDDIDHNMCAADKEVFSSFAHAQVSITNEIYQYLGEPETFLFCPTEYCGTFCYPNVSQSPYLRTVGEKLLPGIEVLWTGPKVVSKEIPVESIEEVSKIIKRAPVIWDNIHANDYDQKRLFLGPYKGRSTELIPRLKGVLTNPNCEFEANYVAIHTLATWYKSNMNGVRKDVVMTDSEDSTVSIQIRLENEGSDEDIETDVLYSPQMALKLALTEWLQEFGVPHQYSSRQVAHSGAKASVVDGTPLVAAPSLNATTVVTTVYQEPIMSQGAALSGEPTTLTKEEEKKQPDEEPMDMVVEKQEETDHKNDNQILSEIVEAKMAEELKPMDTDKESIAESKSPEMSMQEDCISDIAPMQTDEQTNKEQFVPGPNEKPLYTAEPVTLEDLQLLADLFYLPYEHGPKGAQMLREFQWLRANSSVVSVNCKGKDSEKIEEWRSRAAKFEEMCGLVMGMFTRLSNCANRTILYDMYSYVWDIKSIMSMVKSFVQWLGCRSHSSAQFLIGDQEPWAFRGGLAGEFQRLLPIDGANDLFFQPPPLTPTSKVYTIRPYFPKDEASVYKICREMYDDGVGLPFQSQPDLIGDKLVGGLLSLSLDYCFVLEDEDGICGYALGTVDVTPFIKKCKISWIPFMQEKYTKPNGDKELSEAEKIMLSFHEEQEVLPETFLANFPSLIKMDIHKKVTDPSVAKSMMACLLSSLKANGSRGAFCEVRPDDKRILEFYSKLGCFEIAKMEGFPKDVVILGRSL

Chains of the proteins cited; added tags and fusions are not shown.
UniProt P11142: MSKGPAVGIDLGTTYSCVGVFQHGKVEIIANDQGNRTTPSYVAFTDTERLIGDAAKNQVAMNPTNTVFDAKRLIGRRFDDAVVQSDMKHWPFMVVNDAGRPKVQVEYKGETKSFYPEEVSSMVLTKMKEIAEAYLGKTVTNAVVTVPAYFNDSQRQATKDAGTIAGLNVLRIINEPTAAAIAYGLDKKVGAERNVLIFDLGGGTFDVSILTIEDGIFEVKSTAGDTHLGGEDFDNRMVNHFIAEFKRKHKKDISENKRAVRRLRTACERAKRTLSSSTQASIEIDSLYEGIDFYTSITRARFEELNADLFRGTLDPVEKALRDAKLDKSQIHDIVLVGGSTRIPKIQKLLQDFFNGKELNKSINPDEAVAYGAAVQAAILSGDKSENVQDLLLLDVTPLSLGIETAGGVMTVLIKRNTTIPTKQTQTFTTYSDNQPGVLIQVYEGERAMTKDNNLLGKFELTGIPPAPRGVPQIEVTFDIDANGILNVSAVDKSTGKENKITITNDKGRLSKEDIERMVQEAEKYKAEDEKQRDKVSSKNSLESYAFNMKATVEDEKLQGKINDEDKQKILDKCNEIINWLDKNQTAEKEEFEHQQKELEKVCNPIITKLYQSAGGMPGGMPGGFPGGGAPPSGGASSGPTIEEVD

[2] = target: T2, GST-OGA-Q356A/E360A (UniProt O60502); assay: as above
T2 sequence: T1 sequence with Q356A, R358K, E360A

[3] = target: T3, GST-OGA-WT (UniProt O60502); assay: as above
T3 sequence: T1 sequence with R358K

[4] = target: T4, HA-OGA-Q356A/E360A (UniProt O60502); assay: co-IP; both proteins tagged and overproduced in transfected cells (HEK293T); immunoprecipitation by the tag, immunoblot; lysis buffer 200 mM NaCl, 1 mM EDTA, 20 mM Tris (pH 7.5), 0.5% NP-40
T4 sequence: T1 sequence with Q356A, R358K, E360A

Measured: binding

Flag-HSC70 (from UniProt P11142 1-646)
binds: all assays above

Reference: publication PMC12240075
